Data: PubChem BioAssay AID588590 (National Center for Advancing Translational Sciences (NCATS), 2011)
The whole screen tested about 390,000 compounds, of which about 4,000 (1%) were called active. Inconclusive results, whose numbers are uncertain, are shown with a selection of clear calls. Calls come from the whole dose curve; as a rule, active = well fitted inhibition curve with a large enough effect; inconclusive = small, poorly fitted or top-dose-only effect, or another doubt; inactive = no such curve, though single readings can be large or run the other way. Where the call is inconclusive, the potency comes from a doubtful curve fit.

The chains behind the UniProt entries cited, without tags or fusion partners. Where a name states a change or a piece, a line headed by the entry shows the natural chain unless it says otherwise.
UniProt Q9UNA4: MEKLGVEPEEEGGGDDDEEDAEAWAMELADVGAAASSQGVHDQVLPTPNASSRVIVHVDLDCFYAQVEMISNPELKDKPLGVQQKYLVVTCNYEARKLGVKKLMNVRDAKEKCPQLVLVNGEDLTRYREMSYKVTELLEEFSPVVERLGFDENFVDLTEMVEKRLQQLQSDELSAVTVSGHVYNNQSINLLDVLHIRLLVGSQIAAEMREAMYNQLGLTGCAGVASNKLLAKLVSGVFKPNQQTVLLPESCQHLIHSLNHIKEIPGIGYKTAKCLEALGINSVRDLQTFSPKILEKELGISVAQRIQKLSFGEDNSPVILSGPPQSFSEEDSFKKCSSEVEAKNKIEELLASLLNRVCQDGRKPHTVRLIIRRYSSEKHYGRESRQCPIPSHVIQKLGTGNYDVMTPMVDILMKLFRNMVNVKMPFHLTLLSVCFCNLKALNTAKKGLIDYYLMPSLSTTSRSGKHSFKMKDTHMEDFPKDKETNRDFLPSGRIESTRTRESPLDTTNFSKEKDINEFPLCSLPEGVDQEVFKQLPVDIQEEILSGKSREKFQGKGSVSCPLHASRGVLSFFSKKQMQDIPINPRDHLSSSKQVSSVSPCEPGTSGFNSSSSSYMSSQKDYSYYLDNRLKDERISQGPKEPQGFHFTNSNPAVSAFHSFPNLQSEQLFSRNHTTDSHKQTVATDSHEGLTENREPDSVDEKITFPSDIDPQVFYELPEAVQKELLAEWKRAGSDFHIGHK

Biological target: DNA polymerase iota (Homo sapiens) (UniProt Q9UNA4)
Experiment: qHTS for Inhibitors of Polymerase Iota
Settings: Pol iota fluorescent replication assay, 10 min; series mostly up to 115 µM; activity, negative = inhibition: at the top concentration
Procedure, shortened: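 Fluorescent replication assay read twice, at 0 min and 10 min after adding 50 nM (final) substrate. Enzyme (10 nM) and compounds were first incubated 15 min at room temperature; enzyme-free buffer wells were negative controls.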
Potency is the fitted concentration of half-maximal effect.

SMILES	Potency	activity, negative = inhibition
Cc1c(NC(=O)C(C)OC(=O)/C=C/c2ccco2)c(=O)n(-c2ccccc2)n1C (configuration not stated)	inconclusive: 39.8 µM [inhibitor, single point]	–
Cc1noc2ncnc(NCc3ccc(Cl)cc3)c12	–	inactive: -6.38%
Nc1cc(Cl)ccc1N1CCCCC1	–	inactive: 7.61%
CCOC(=O)C1=C(COc2ccccc2)NC(=O)NC1c1ccc(Cl)cc1 (configuration not stated)	inconclusive: 56.2 µM [inhibitor, partial curve, poor fit]	–
COc1ccc(NC(=O)C(=O)NCc2ccco2)c(OC)c1	–	inactive: -16.4%
COc1ccc(N2CCN(c3oc(/C=C/c4ccccc4OC)nc3C#N)CC2)cc1	–	inactive: 9.78%
O=C(Nc1nc(-c2ccco2)c(-c2ccco2)s1)C1CC(=O)N(c2ccc3c(c2)OCCO3)C1 (configuration not stated)	active: 7.94 µM	–
COCCN(C(=O)c1cc(-c2ccco2)nc2ccccc12)c1c(N)n(Cc2ccccc2)c(=O)[nH]c1=O	active: 17.8 µM	–
CCN1/C(=N\N)c2cccc3cccc1c23	inconclusive: 56.2 µM [inhibitor, single point]	–
COc1ccc(Nc2c3c(nc4ccc(NC(=O)c5cc(Cl)ccc5OC)cc24)CCCC3)cc1OC	inconclusive: 50.1 µM [inhibitor, partial curve, poor fit]	–
CCOC(=O)N1CCN(C(=O)c2ccc(Cl)nc2)CC1	–	inactive: 30.9%
O=C(Nc1ccc(C(=O)OCc2cc(=O)n3ccsc3n2)cc1)c1cccc(F)c1	–	inactive: 16.8%
O=[N+]([O-])c1ccc(S(=O)(=O)CC2CSc3nc4ccccc4n32)cc1 (configuration not stated)	inconclusive: 89.1 µM [inhibitor, single point]	–
COc1ccc(C2C=C(c3ccccc3)Nc3nc(NC(=O)/C=C/c4ccccc4OC)nn32)cc1 (configuration not stated)	–	inactive: 17.7%
Cc1cc(C)c2c(=O)n(CC(=O)Nc3cccc(Cl)c3C)sc2n1	inconclusive: 56.2 µM [inhibitor, partial curve, poor fit]	–
CCN1C(=O)[C@@H]2Cc3c([nH]c4ccccc34)C(c3ccc(OC)cc3)N2C1=S (some centres not stated)	inconclusive: 39.8 µM [inhibitor, single point]	–
O=c1cc(CSc2nnnn2-c2ccccc2)nc2sccn12	inconclusive: 22.4 µM [inhibitor, partial curve, poor fit]	–
CCOC(=O)c1oc2ccc(S(=O)(=O)N3CCOCC3)cc2c1C	inconclusive: 89.1 µM [inhibitor, partial curve, poor fit]	–
CC(=O)c1ccc(S(=O)(=O)Nc2ccc(-n3cnnn3)cc2)cc1	active: 39.8 µM	–
Cc1ccc2nc3c(cc(C(=O)NCc4ccccc4)c(=N)n3CCCn3ccnc3)c(=O)n2c1	inconclusive: 50.1 µM [inhibitor, partial curve]	–
Nc1ccc(/C=C/c2cccc3cccnc23)cc1	–	inactive: 11.7%
CC(C)(C)C1C/C(=C/c2ccco2)C(=O)/C(=C/c2ccco2)C1 (configuration not stated)	inconclusive: 22.4 µM [inhibitor, full curve]	–
CCN(C(=O)COc1ccc(C(C)=O)cc1)c1cccc2ccccc12	–	inactive: 11.8%

SMILES	Potency	activity, negative = inhibition
COc1ccc(-n2c(O)c(/C=N/NS(=O)(=O)c3ccc(C)cc3)c3ccccc3c2=O)cc1OC	active: 39.8 µM	–
CCCn1c(CN2CCN(C(=O)OCC)CC2)nc2cc(NC(C)=O)ccc21	inconclusive: 25.1 µM [inhibitor, single point]	–
CC(C)CN(C(=O)COC(=O)c1cccn1C)c1c(N)n(Cc2ccccc2)c(=O)[nH]c1=O	inconclusive: 28.2 µM [inhibitor, partial curve, poor fit]	–
COc1c(Cl)cc(Cl)cc1C(=O)Nc1ccc(NC(C)=O)cc1	inconclusive: 89.1 µM [inhibitor, single point]	–
COCCNC(=O)/C(C#N)=C/c1ccc(C(=O)O)cc1	inconclusive: 2.82 µM [inhibitor, partial curve, poor fit]	–
O=C(Nc1ccc2c(c1)CCC2)c1cc(S(=O)(=O)N2CCN(c3ccccc3)CC2)ccc1Cl	inconclusive: 17.8 µM [inhibitor, partial curve, poor fit]	–
Cn1c(=O)c2cc(C(=O)Nc3cccc(C#N)c3)sc2c2ccccc21	–	inactive: 6.24%
NC(=O)c1c(N)sc2c1CCCCC2	inconclusive: 28.2 µM [inhibitor, single point]	–
COc1ccc(C(CC(=O)Nc2nccs2)n2cccc2)cc1 (configuration not stated)	inconclusive: 39.8 µM [inhibitor, single point]	–
COc1cc2ccc(=O)oc2c(O)c1OCC=C(C)C	inconclusive: 70.8 µM [inhibitor, full curve]	–
Cc1ccc(NCC(=O)N/N=C\C(Br)=C\c2ccccc2)cc1	inconclusive: 17.8 µM [inhibitor, full curve]	–
Cc1cc(Br)ccc1NC(=O)CCNS(=O)(=O)c1cccc2nonc12	–	inactive: 15.1%
CC(/C=C1\SC(=S)N(NC(=O)c2ccc(C)cc2)C1=O)=C\c1ccccc1	–	inactive: -1.75%
COc1ccc(NC(=O)c2c(NCc3cccs3)sc3c2CCCCC3)c(OC)c1	inconclusive: 17.8 µM [inhibitor, full curve]	–
Cc1onc(-c2ccccc2Cl)c1C(=O)Oc1cc(N)n(S(=O)(=O)c2ccc(F)cc2)n1	inconclusive: 17.8 µM [inhibitor, partial curve, poor fit]	–
COC(=O)c1ccc(COc2ccc3c(C)c(C)c(=O)oc3c2)o1	inconclusive: 79.4 µM [inhibitor, single point]	–
Cc1[nH]n(-c2ccccc2)c(=O)c1/C=N/NC(=O)c1ccccc1F	inconclusive: 12.6 µM [inhibitor, partial curve]	–
CC(=O)Nc1cccc(C(=O)/C=C/c2cccs2)c1	inconclusive: 79.4 µM [inhibitor, single point]	–
O=C(O)c1cc(N/N=C/c2c[nH]c3ccccc23)ccc1Cl	inconclusive: 31.6 µM [inhibitor, partial curve, poor fit]	–
CCOc1ccc(OCC)c(Nc2nc3ccc(C(=O)c4ccccc4)cc3n3cnnc23)c1	–	inactive: -23.8%
CN(C)c1ccc(NC(=O)Nc2ccc3snnc3c2)cc1	inconclusive: 2.82 µM [inhibitor, partial curve, poor fit]	–
CN(C(=O)c1ccncc1)c1ccccc1	inconclusive: 28.2 µM [inhibitor, full curve, poor fit]	–
Fc1ccccc1C1CC(c2ccco2)=Nc2ccccc2S1 (configuration not stated)	inconclusive: 14.1 µM [inhibitor, partial curve, poor fit]	–

SMILES	Potency	activity, negative = inhibition
CCCC(C)C(=O)Nc1nnc(CCc2ccccc2)s1 (configuration not stated)	inconclusive: 79.4 µM [inhibitor, partial curve, poor fit]	–
COC/C=C/C1=CC2=CC(=O)C(C)(OC(=O)C3CCCC3)C(=O)C2=CO1 (configuration not stated)	inconclusive: 6.31 µM [inhibitor, full curve, poor fit]	–
CC(=O)c1ccc(NS(=O)(=O)c2ccc(CC(C)C)cc2)cc1	inconclusive: 79.4 µM [inhibitor, partial curve]	–
CCCCNC(=O)[C@@H]1CC=C[C@@H]2CCN(Cc3ccccc3)C(=O)[C@@H]21	–	inactive: 14.1%
Cc1ccccc1NC(=O)/C(C#N)=C/c1ccc(-c2ccc(Cl)c(C(=O)O)c2)o1	inconclusive: 39.8 µM [inhibitor, single point]	–
CN1/C(=C\C(=O)CN2C(=O)NC3(CCCCCC3)C2=O)C(C)(C)c2ccccc21	inconclusive: 39.8 µM [inhibitor, single point]	–
COC(=O)CNC(=O)CN1C(=O)N(c2ccc(Cl)cc2)C(N(O)C(=O)Nc2ccc(Cl)cc2)C1(C)C (configuration not stated)	–	inactive: 3.96%
C=CCNc1nc(-c2ccc(OC)cc2OC)cs1	inconclusive: 31.6 µM [inhibitor, single point]	–
CCn1c(N)c(C(=O)NCc2ccc3c(c2)OCO3)sc1=S	inconclusive: 2.51 µM [inhibitor, full curve, poor fit]	–
COc1cc(C2C(C(=O)c3ccco3)=C(O)C(=O)N2c2cc(C)on2)cc(Br)c1O (configuration not stated)	inconclusive: 22.4 µM [inhibitor, partial curve, poor fit]	–
CCOc1ccc(NC(=O)CN(c2ccc(C)cc2)S(=O)(=O)c2cccs2)cc1	–	inactive: 18.5%
COC(=O)C1=C(N)c2c(F)cccc2C1(C#N)c1ccc(F)cc1 (configuration not stated)	inconclusive: 3.98 µM [inhibitor, partial curve, poor fit]	–
CC1(C)Cc2nc(NCCCO)c(C#N)cc2CO1	inconclusive: 39.8 µM [inhibitor, single point]	–
CCOC(=O)N1CCN(C(=O)C2CCN(c3nnc(-n4cccc4)s3)CC2)CC1	inconclusive: 89.1 µM [inhibitor, single point]	–
CCc1nnc(NS(=O)(=O)c2ccc(NC(=O)/C=C/C(=O)O)cc2)s1	inconclusive: 63.1 µM [inhibitor, partial curve, poor fit]	–
COc1ccc2c(c1)C(=O)[C@H](O)[C@@H](c1ccc(OC)c(Br)c1)O2	–	inactive: 43.3%
CCCOc1ccc(CN2C(=O)C(=O)c3cccc(C)c32)cc1	inconclusive: 28.2 µM [inhibitor, partial curve]	–
COc1ccc(-c2nc3ccccc3s2)cc1NC(=O)c1cccc(F)c1	inconclusive: 89.1 µM [inhibitor, single point]	–
Cc1ccsc1C(=O)OCc1cc(=O)n2ccsc2n1	inconclusive: 79.4 µM [inhibitor, partial curve]	–
N#Cc1cn(CC(=O)O)c2ccccc12	inconclusive: 7.94 µM [inhibitor, full curve, poor fit]	–
COc1ccc(N=Cc2c(O)n(-c3ccc(OC)cc3)c(=O)c3ccccc23)cc1	–	inactive: -15.8%

Single entries from the list:
CCCOc1ccc(CN2C(=O)C(=O)c3cccc(C)c32)cc1 | Potency: inconclusive: 28.2 µM [inhibitor, partial curve]
COc1ccc(C(CC(=O)Nc2nccs2)n2cccc2)cc1 (configuration not stated) | Potency: inconclusive: 39.8 µM [inhibitor, single point]
CCOc1ccc(OCC)c(Nc2nc3ccc(C(=O)c4ccccc4)cc3n3cnnc23)c1 | activity, negative = inhibition: inactive: -23.8%
CCCCNC(=O)[C@@H]1CC=C[C@@H]2CCN(Cc3ccccc3)C(=O)[C@@H]21 | activity, negative = inhibition: inactive: 14.1%
Cc1cc(C)c2c(=O)n(CC(=O)Nc3cccc(Cl)c3C)sc2n1 | Potency: inconclusive: 56.2 µM [inhibitor, partial curve, poor fit]
